US9462809B2 (priority 2012, dated 2016)
Like-named read-outs stand apart in the source and are kept apart here. Some results were stated once for a whole list of compounds, not compound by compound.

Legend:
Assay type in all cases: in vivo
Phakopsora pachyrhizi = experiment: Protective control of soy bean rust on soy beans caused by Phakopsora pachyrhizi (Use Example 4); settings: soy bean seedlings sprayed with 250 ppm, inoculated after 1 day, cultivated fourteen days; untreated plants 94%
Botrytis cinerea = experiment: Preventative fungicidal control of Botrytis cinerea on leaves of green pepper (Use Example 5); settings: green pepper seedlings sprayed with 250 ppm, inoculated the next day, kept 5 days; untreated plants 95%
Septoria tritici = experiment: Preventative control of leaf blotch on wheat caused by Septoria tritici (Use Example 2); settings: wheat seedlings sprayed with 250 ppm, inoculated the following day, assessed after 4 weeks; untreated plants 92%
Phytophthora infestans [1] = settings: tomato plants sprayed with 250 ppm, inoculated the next day, assessed after 6 days; untreated plants 84%
Phytophthora infestans [2] = settings: tomato plants sprayed with 250 ppm, inoculated after seven days, kept 6 days; untreated plants 67%
Puccinia recondita = experiment: Preventative control of brown rust on wheat caused by Puccinia recondita (Use Example 3); settings: wheat seedlings sprayed with 250 ppm, inoculated the next day, cultivated 6 days; untreated plants 86%

For Cc1ncnc(NCCC#Cc2ccc(Oc3cc(C(F)(F)F)ccn3)cc2)c1Cl [I-2], which diseased leaf area (Phakopsora pachyrhizi) is on record?
Its diseased leaf area is “at most 15%”.

What about the diseased leaf area (Botrytis cinerea) of the same compound?
The diseased leaf area was “at most 15%”.

Which results are given for FC(F)(F)c1ccnc(Oc2ccc(C#CCCNc3ncnc4scnc34)cc2)c1 [I-18]?
diseased leaf area (Septoria tritici): at most 20%; diseased leaf area (Phakopsora pachyrhizi): at most 15%; diseased leaf area (Botrytis cinerea): at most 15%

COC(=O)c1ncnc(NC(C)CC#Cc2ccc(Oc3cc(C(F)(F)F)ccn3)cc2)c1Cl (centres unmarked) [I-22] was tested. Which diseased leaf area (Septoria tritici) did it give?
Its diseased leaf area is “at most 20%”.

And the diseased leaf area (Phakopsora pachyrhizi)?
Its diseased leaf area is “at most 15%”.

And the diseased leaf area (Botrytis cinerea)?
The diseased leaf area was “at most 15%”.

What does the source list for COc1c(Cl)ncnc1NC(C)CC#Cc1ccc(Oc2cc(C(F)(F)F)ccn2)cc1 (centres unmarked) [I-27, 6-chloro-5-methoxy-N-[1-methyl-4-[4-[[4-(trifluoromethyl)-2-pyridyl]oxy]phenyl]but-3-ynyl]pyrimidin-4-amine]?
diseased leaf area (Septoria tritici): at most 20%; diseased leaf area (Phakopsora pachyrhizi): at most 15%; diseased leaf area (Phytophthora infestans [1]): at most 20%; diseased leaf area (Botrytis cinerea): at most 15%; diseased leaf area (Phytophthora infestans [2]): at most 20%; diseased leaf area (Puccinia recondita): at most 20%

Which diseased leaf area (Septoria tritici) does the source give for CCn1ncc2ncnc(NCCC#Cc3ccc(Oc4cc(C(F)(F)F)ccn4)cc3)c21 [I-29] here?
The diseased leaf area was “at most 20%”.

What about the diseased leaf area (Phakopsora pachyrhizi) of the same compound?
Its diseased leaf area is “at most 15%”.

And the diseased leaf area (Botrytis cinerea)?
The diseased leaf area was “at most 15%”.

And the diseased leaf area (Phytophthora infestans [2])?
Its diseased leaf area is “at most 20%”.

What about the diseased leaf area (Puccinia recondita) of the same compound?
Its diseased leaf area is “at most 20%”.

For FC(F)(F)c1ccnc(Oc2ccc(C#CCCNc3ncnc4cccnc34)cc2)c1 [I-33], which diseased leaf area (Septoria tritici) is on record?
The diseased leaf area was “at most 20%”.

What about the diseased leaf area (Phakopsora pachyrhizi) of the same compound?
Its diseased leaf area is “at most 15%”.

And the diseased leaf area (Botrytis cinerea)?
Its diseased leaf area is “at most 15%”.

COC(=O)c1ncnc(NC(C)CC#Cc2ccc(Oc3cc(C(F)(F)F)ccn3)cc2)c1OC (centres unmarked) [I-35] was tested. Which diseased leaf area (Septoria tritici) did it give?
The diseased leaf area was “at most 20%”.

And the diseased leaf area (Phytophthora infestans [1])?
The diseased leaf area was “at most 20%”.

What about the diseased leaf area (Botrytis cinerea) of the same compound?
The diseased leaf area was “at most 15%”.

What about the diseased leaf area (Phytophthora infestans [2]) of the same compound?
Its diseased leaf area is “at most 20%”.

How did the diseased leaf area (Septoria tritici) turn out when COC(=O)c1c(C)ncnc1NC(C)CC#Cc1ccc(Oc2cc(C(F)(F)F)ccn2)cc1 (centres unmarked) [I-36] was run?
The diseased leaf area was “at most 20%”.

What about the diseased leaf area (Phakopsora pachyrhizi) of the same compound?
The diseased leaf area was “at most 15%”.

What about the diseased leaf area (Botrytis cinerea) of the same compound?
The diseased leaf area was “at most 15%”.

CC(CC#Cc1ccc(Oc2cc(C(F)(F)F)ccn2)cc1)Nc1ncnc(Cl)c1Br (centres unmarked) [I-37] was tested. Which diseased leaf area (Septoria tritici) did it give?
The diseased leaf area was “at most 20%”.

What about the diseased leaf area (Phakopsora pachyrhizi) of the same compound?
Its diseased leaf area is “at most 15%”.

What about the diseased leaf area (Phytophthora infestans [1]) of the same compound?
The diseased leaf area was “at most 20%”.

And the diseased leaf area (Phytophthora infestans [2])?
Its diseased leaf area is “at most 20%”.

With CCc1c(NC(C)CC#Cc2ccc(Oc3cc(C(F)(F)F)ccn3)cc2)ncnc1C(=O)OC (centres unmarked) [I-39] as the compound, how does the diseased leaf area (Phakopsora pachyrhizi) read?
The diseased leaf area was “at most 15%”.

What about the diseased leaf area (Botrytis cinerea) of the same compound?
The diseased leaf area was “at most 15%”.

How did the diseased leaf area (Botrytis cinerea) turn out when CC(CC#Cc1ccc(Oc2cc(C(F)(F)F)ccn2)cc1)Nc1ncnc(O)c1Br (centres unmarked) [I-41] was run?
Its diseased leaf area is “at most 15%”.

Which diseased leaf area (Septoria tritici) does the source give for CC(CC#Cc1ccc(Oc2cccc(C(F)(F)F)n2)cc1)Nc1ncnc2c(F)ccc(F)c12 (centres unmarked) [I-42] here?
The diseased leaf area was “at most 20%”.

And the diseased leaf area (Phakopsora pachyrhizi)?
Its diseased leaf area is “at most 15%”.

What about the diseased leaf area (Botrytis cinerea) of the same compound?
The diseased leaf area was “at most 15%”.

CC(CC#Cc1ccc(Oc2ccnc(C(F)(F)F)c2)cc1)Nc1ncnc2c(F)ccc(F)c12 (centres unmarked) [I-43] was tested. Which diseased leaf area (Septoria tritici) did it give?
Its diseased leaf area is “at most 20%”.

What about the diseased leaf area (Phakopsora pachyrhizi) of the same compound?
The diseased leaf area was “at most 15%”.

What about the diseased leaf area (Botrytis cinerea) of the same compound?
Its diseased leaf area is “at most 15%”.

How did the diseased leaf area (Septoria tritici) turn out when CC(CC#Cc1ccc(Oc2ccc(C(F)(F)F)cn2)cc1)Nc1ncnc2c(F)ccc(F)c12 (centres unmarked) [I-44] was run?
Its diseased leaf area is “at most 20%”.

What about the diseased leaf area (Phytophthora infestans [1]) of the same compound?
The diseased leaf area was “at most 20%”.

What about the diseased leaf area (Phytophthora infestans [2]) of the same compound?
Its diseased leaf area is “at most 20%”.

With CC(CC#Cc1ccc(Oc2ccnc(C(F)(F)F)c2)cc1)Nc1ncnc(C(C)F)c1Cl (centres unmarked) [I-47] as the compound, how does the diseased leaf area (Septoria tritici) read?
Its diseased leaf area is “at most 20%”.

What about the diseased leaf area (Phytophthora infestans [1]) of the same compound?
The diseased leaf area was “at most 20%”.

And the diseased leaf area (Phytophthora infestans [2])?
The diseased leaf area was “at most 20%”.

And the diseased leaf area (Puccinia recondita)?
The diseased leaf area was “at most 20%”.

What does the source list for CC(CC#Cc1ccc(Oc2ccc(C(F)(F)F)cn2)cc1)Nc1ncnc(C(C)F)c1Cl (centres unmarked) [I-48]?
diseased leaf area (Septoria tritici): at most 20%; diseased leaf area (Phakopsora pachyrhizi): at most 15%; diseased leaf area (Phytophthora infestans [1]): at most 20%; diseased leaf area (Phytophthora infestans [2]): at most 20%; diseased leaf area (Puccinia recondita): at most 20%

For CC(CC#Cc1ccc(Oc2ncc(Cl)cc2Cl)cc1)Nc1ncnc(C(C)F)c1Cl (centres unmarked) [I-50], which diseased leaf area (Septoria tritici) is on record?
The diseased leaf area was “at most 20%”.

What about the diseased leaf area (Phakopsora pachyrhizi) of the same compound?
Its diseased leaf area is “at most 15%”.

What about the diseased leaf area (Phytophthora infestans [1]) of the same compound?
The diseased leaf area was “at most 20%”.

And the diseased leaf area (Phytophthora infestans [2])?
The diseased leaf area was “at most 20%”.

What about the diseased leaf area (Puccinia recondita) of the same compound?
Its diseased leaf area is “at most 20%”.

With Cc1c(Cl)ncnc1NC(C)CC#Cc1ccc(Oc2ccc(C(F)(F)F)cn2)cc1 (centres unmarked) [I-56] as the compound, how does the diseased leaf area (Septoria tritici) read?
The diseased leaf area was “at most 20%”.

And the diseased leaf area (Phakopsora pachyrhizi)?
The diseased leaf area was “at most 15%”.

And the diseased leaf area (Phytophthora infestans [1])?
The diseased leaf area was “at most 20%”.

What about the diseased leaf area (Phytophthora infestans [2]) of the same compound?
The diseased leaf area was “at most 20%”.

And the diseased leaf area (Puccinia recondita)?
Its diseased leaf area is “at most 20%”.

With COc1c(Cl)ncnc1NC(C)CC#Cc1ccc(Oc2ccc(C(F)(F)F)cn2)cc1 (centres unmarked) [I-59] as the compound, how does the diseased leaf area (Septoria tritici) read?
The diseased leaf area was “at most 20%”.

What about the diseased leaf area (Phakopsora pachyrhizi) of the same compound?
The diseased leaf area was “at most 15%”.

What about the diseased leaf area (Phytophthora infestans [1]) of the same compound?
The diseased leaf area was “at most 20%”.

What about the diseased leaf area (Phytophthora infestans [2]) of the same compound?
Its diseased leaf area is “at most 20%”.

And the diseased leaf area (Puccinia recondita)?
Its diseased leaf area is “at most 20%”.

COc1c(Cl)ncnc1NC(C)CC#Cc1ccc(Oc2cccc(C(F)(F)F)n2)cc1 (centres unmarked) [I-60] was tested. Which diseased leaf area (Septoria tritici) did it give?
Its diseased leaf area is “at most 20%”.

And the diseased leaf area (Botrytis cinerea)?
Its diseased leaf area is “at most 15%”.

What about the diseased leaf area (Puccinia recondita) of the same compound?
Its diseased leaf area is “at most 20%”.

With CC(CC#Cc1ccc(Oc2ccc(Cl)cn2)cc1)Nc1ncnc(C(C)F)c1Cl (centres unmarked) [I-65] as the compound, how does the diseased leaf area (Phakopsora pachyrhizi) read?
Its diseased leaf area is “at most 15%”.

What about the diseased leaf area (Phytophthora infestans [1]) of the same compound?
The diseased leaf area was “at most 20%”.

What about the diseased leaf area (Phytophthora infestans [2]) of the same compound?
Its diseased leaf area is “at most 20%”.

With Cc1c(Cl)ncnc1NC(C)CC#Cc1ccc(Oc2ccc(Cl)cn2)cc1 (centres unmarked) [I-66] as the compound, how does the diseased leaf area (Phakopsora pachyrhizi) read?
Its diseased leaf area is “at most 15%”.

What about the diseased leaf area (Phytophthora infestans [1]) of the same compound?
The diseased leaf area was “at most 20%”.

And the diseased leaf area (Phytophthora infestans [2])?
Its diseased leaf area is “at most 20%”.

COc1c(Cl)ncnc1NC(C)CC#Cc1ccc(Oc2ccc(Cl)cn2)cc1 (centres unmarked) [I-67] was tested. Which diseased leaf area (Phakopsora pachyrhizi) did it give?
Its diseased leaf area is “at most 15%”.

And the diseased leaf area (Phytophthora infestans [1])?
The diseased leaf area was “at most 20%”.

What about the diseased leaf area (Phytophthora infestans [2]) of the same compound?
Its diseased leaf area is “at most 20%”.

For CC(CC#Cc1ccc(Oc2ncc(Cl)cc2Cl)cc1)Nc1ncnc2c(F)ccc(F)c12 (centres unmarked) [I-74], which diseased leaf area (Septoria tritici) is on record?
The diseased leaf area was “at most 20%”.

What about the diseased leaf area (Botrytis cinerea) of the same compound?
Its diseased leaf area is “at most 15%”.
